From publication PMC7140648 come the findings set out here.

Protein sequences, listed by entry. Tags and fused reporters are not part of them. Lines headed by an entry give the natural chain unless they say otherwise; changes in a name come on top.
UniProt Q04899: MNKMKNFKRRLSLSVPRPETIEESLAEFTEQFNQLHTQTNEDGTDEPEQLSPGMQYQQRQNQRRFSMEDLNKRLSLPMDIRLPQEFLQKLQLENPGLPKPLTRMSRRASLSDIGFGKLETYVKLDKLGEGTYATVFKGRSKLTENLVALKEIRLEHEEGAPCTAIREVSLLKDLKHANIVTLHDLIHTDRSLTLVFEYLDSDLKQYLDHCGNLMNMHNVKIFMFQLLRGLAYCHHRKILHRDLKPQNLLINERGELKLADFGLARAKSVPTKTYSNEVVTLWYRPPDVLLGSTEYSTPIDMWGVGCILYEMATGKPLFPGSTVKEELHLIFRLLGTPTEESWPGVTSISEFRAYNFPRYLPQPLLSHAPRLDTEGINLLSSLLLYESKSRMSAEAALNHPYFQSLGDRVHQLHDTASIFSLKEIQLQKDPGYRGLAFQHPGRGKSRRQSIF
UniProt Q9WUD1: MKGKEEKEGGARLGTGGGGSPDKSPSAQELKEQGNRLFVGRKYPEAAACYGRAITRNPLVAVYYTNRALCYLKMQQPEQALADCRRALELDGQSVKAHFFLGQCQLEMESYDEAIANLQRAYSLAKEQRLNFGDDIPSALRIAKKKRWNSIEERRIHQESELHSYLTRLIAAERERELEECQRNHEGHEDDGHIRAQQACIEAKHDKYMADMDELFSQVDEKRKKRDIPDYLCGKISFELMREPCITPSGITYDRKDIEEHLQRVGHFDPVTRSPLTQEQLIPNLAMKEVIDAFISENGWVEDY

No constants are given. Whether binding was seen depends on the method and setting. In cells and extracts the contact can be indirect. A yes stands for co-enrichment or nearness to the bait. Other partners may have been found.

The test addresses CDK18-FLAG S12D (constitutively active) (UniProt Q04899). Put plainly: affinity purification with mass spectrometry; CDK18-FLAG K150R or S12D expressed in MCD4 cells, immunoprecipitated through their Flag tags; LC-MS/MS, MaxLFQ, K150R against S12D.

Take “STUB1 (STIP1 homology and U-box containing protein 1) (from UniProt Q9WUD1 1-304) (enzyme)”: the binding result is on record as “binds”.
